Our source for the AC50 values is PubChem BioAssay AID445 (National Center for Advancing Translational Sciences (NCATS), 2006).

The nature of this test: IkB Signaling. The note with it: ABC-DLBCL IkBa-CBG/CBR dual luciferase ratio (green luciferase fused to IkBa over red control in OCI-Ly3 lymphoma cells), 4 h. Put shortly:
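Curves were fitted separately to fusion (green), unfused (red) and ratio luminescence, then classed by r2, magnitude and activity. Cells: OCI-Ly3, 4 h compound plus doxycycline at 37C; 10 uM MG-132 defined full response.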

Setting [1] is: measured here: control luc red channel unless noted.

SMILES strings stand for the structures. The list shows a part of the results. Further columns of the screen follow, without active or inactive calls. Compounds called inactive in the main read-out are mostly missing here. The note in brackets gives the kind of curve behind each potency; many fits are weak.

For `Cc1cccc(N(C)C(=O)C2CCC(CNS(=O)(=O)c3cccc4nsnc34)CC2)c1` (stereo unspecified), the AC50 under setting [1] is 20 µM [falling, single point].

In the case of `c1ccc2[nH]c(CN3CCCCCC3)nc2c1`, under setting [1], the AC50 is 31.6 µM [falling, single point].

On to `O=c1c2c3c(sc2nnn1CCCCOc1ccc(Cl)cc1)CCCC3`, for which the AC50 under setting [1] was 15.8 µM [falling, single point].

For the compound `Cc1ccccc1CNc1nc(N)n(-c2ccccc2)n1`, under setting [1], the AC50 was 7.94 µM [falling, partial curve].

As for `COC(=O)c1ccc(CSc2nc3ccccc3c(=O)n2Cc2ccco2)o1`, under setting [1], the AC50 was 25.1 µM [falling, partial curve].

As for `N#C/C(=C/c1ccc(O)cc1)c1nc(-c2ccc(-c3ccccc3)cc2)cs1`, the AC50 under setting [1] was 6.31 µM [falling, partial curve].

Take `O=C(CCCc1nc(-c2ccc(Cl)cc2)no1)NCc1ccco1`: the AC50 under setting [1] is 10 µM [falling, partial curve].

With `CCN(CC)c1cc(NC2CCCCC2)c2c3c(onc13)-c1ccccc1C2=O`, the AC50 under setting [1] is 3.98 µM [falling, single point].

For the compound `Cc1ccccc1CN1C(=O)C(O)(c2c[nH]c3ccccc23)c2cc(Cl)ccc21` (stereo unspecified), the AC50 under setting [1] is 25.1 µM [falling, partial curve].

Consider `O=C(c1ccc2c(c1)N(Cc1ccccc1)C(=O)c1ccccc1S2(=O)=O)N1CCC(Cc2ccccc2)CC1`, for which the AC50 under setting [1] was 10 µM [falling, partial curve].

Consider `CCCCN1C(C(=O)c2ccccc2)=C(OC(=O)CC)c2ccccc2S1(=O)=O`, for which the AC50 under setting [1] is 3.98 µM [falling, full curve].

As to `CC1CCN(c2nc3ccccc3nc2SCC(=O)Nc2ccccc2C(C)C)CC1`, the AC50 under setting [1] is 25.1 µM [falling, partial curve, poor fit].

For `CCCN1CCN(c2ncnc3sc(C(=O)Nc4ccc(OC(F)(F)F)cc4)c(C)c23)CC1`, the AC50 under setting [1] is 39.8 µM [falling, partial curve, poor fit].

As for `CCOc1ccc(C(=O)c2cn(CC(=O)Nc3ccc(C)c(Cl)c3)c3ccc(OCC)cc3c2=O)cc1`, the AC50 under setting [1] was 2.51 µM [falling, partial curve, poor fit].

Take `CCCCC(=O)OCc1cc(=O)n2nc(C3CC3)sc2n1`: under setting [1], the AC50 was 12.6 µM [rising, partial curve].

Consider `O=C(NC1(C(F)(F)F)N=C(c2ccccc2)N(Cc2ccccc2)C1=O)c1ccc(F)cc1` (stereo unspecified), for which the AC50 under setting [1] was 39.8 µM [falling, single point].

As for `O=C(Nc1nc(-c2ccncc2)cs1)C1COc2ccccc2O1` (stereo unspecified), the half-maximal activity concentration (AC50) under setting [1] is 39.8 µM [falling, single point].

For `CCOc1ccc(CCNC(=O)c2cc3n(n2)CCCN(Cc2ccc(C)cc2)C3=O)cc1OCC`, the AC50 under setting [1] is 1 µM [rising, partial curve].

In the case of `Cc1cc(-c2ccc(C)c(S(=O)(=O)Nc3ccc(C)c(N(C)C)c3)c2)on1`, the AC50 under setting [1] is 39.8 µM [falling, single point].

For `COc1ccc2cc3c(N)c(C(=O)N4CCCC4)sc3nc2c1`, the AC50 under setting [1] was 31.6 µM [falling, partial curve].

Regarding `C=CCn1c(-c2ccc(Cl)cc2)c[nH]c1=S`, the AC50 under setting [1] is 0.501 µM [falling, full curve].

With `COc1ccc(-c2nc(SCC(=O)NCC3CCCO3)c(-c3ccc(C)cc3)[nH]2)cc1OC` (stereo unspecified), the AC50 under setting [1] is 7.94 µM [falling, partial curve].

Take `COc1cc(/C=N/n2cnnc2)ccc1OC(=O)c1cccnc1`: the AC50 under setting [1] is 10 µM [falling, partial curve].

For `CC(C)(CO)Cc1cc(C(C)(C)C)c(O)c(C(C)(C)C)c1`, the AC50 (measured here: IkB-luc green channel) is 7.94 µM [rising, partial curve] and the AC50 (measured here: control luc red channel) was 39.8 µM [falling, single point].

As for `Cc1ccc(N(C)S(=O)(=O)c2nnc(NC(=O)c3ccco3)s2)cc1`, the concentration at half-maximal activity (AC50) under setting [1] was 7.94 µM [falling, full curve, poor fit].

On to `CCCC(c1nnnn1Cc1ccccc1)N1CCN(c2ccccc2OC)CC1` (stereo unspecified), for which the AC50 under setting [1] is 31.6 µM [falling, single point].

Consider `Cc1cccc(NC(=O)COc2ccc(Br)cc2)n1`, for which the AC50 under setting [1] was 12.6 µM [falling, partial curve].

Consider `COc1ccc(CNC(=O)C2CCN(C(=O)N3CCOc4ccc(C)cc43)CC2)cc1`, for which the AC50 under setting [1] was 25.1 µM [falling, single point].

With `C=C(C)COc1ccc(-c2[nH]ncc2-c2ccc(OC)c(OC)c2)c(O)c1`, the AC50 under setting [1] was 12.6 µM [falling, partial curve].

`O=C(NCc1ccc(Cl)cc1)c1cc2cccc3c2n1CCS3`: under setting [1], the AC50 is 12.6 µM [falling, partial curve].

Take `CC1CCCN(C(=O)c2ccc(CSc3nc4ccncc4n3Cc3ccccc3)cc2)C1` (stereo unspecified): the AC50 under setting [1] was 20 µM [falling, single point].

In the case of `O=C(O)CCc1ccc(-c2ccc(F)cc2)n1Cc1ccco1`, under setting [1], the AC50 is 25.1 µM [falling, partial curve].

`Cc1cccc(NC(=O)Cn2c(=O)n(Cc3nc(-c4ccccc4)no3)c(=O)c3ccccc32)c1`: under setting [1], the AC50 is 15.8 µM [falling, partial curve].

Regarding `COC(=O)c1sccc1S(=O)(=O)N(CC(=O)NCc1ccc(F)cc1)c1ccccc1`, the AC50 under setting [1] was 12.6 µM [falling, partial curve].

For the compound `O=C(CCNS(=O)(=O)c1ccc(Br)s1)Nc1ccc(Br)cc1`, the AC50 under setting [1] was 3.16 µM [falling, single point].

For the compound `CCc1cc2cc(C(=O)N3CCN(Cc4ccccc4)CC3)sc2s1`, the AC50 under setting [1] is 3.98 µM [falling, partial curve].

Regarding `COc1cc(NS(=O)(=O)c2ccc(NC(=O)COc3ccc(Cl)cc3Cl)cc2)nc(OC)n1`, under setting [1], the AC50 is 20 µM [falling, partial curve].

Turning to `CCOc1ccccc1N(CC)C(=O)Cn1ncc2c1-c1ccccc1OC2`, the AC50 under setting [1] is 39.8 µM [falling, single point].

For the compound `CCOc1ccc(NC(=O)CSc2nc(-c3ccccc3)c3cc(OCC)ccc3n2)cc1`, under setting [1], the AC50 was 39.8 µM [falling, single point].

On to `CCOC(=O)O[C@]1(C(=O)COC(=O)CC)CC[C@@H]2[C@@H]3CCC4=CC(=O)C=C[C@@]4(C)[C@H]3[C@H](O)C[C@]21C`, for which the AC50 under setting [1] is 3.98 nM [rising, full curve] [measured here: IkB-luc green channel].
